This assay addresses T1, LATS1 (human (endogenous in SK-Hep-1)) (UniProt O95835).
T1 sequence: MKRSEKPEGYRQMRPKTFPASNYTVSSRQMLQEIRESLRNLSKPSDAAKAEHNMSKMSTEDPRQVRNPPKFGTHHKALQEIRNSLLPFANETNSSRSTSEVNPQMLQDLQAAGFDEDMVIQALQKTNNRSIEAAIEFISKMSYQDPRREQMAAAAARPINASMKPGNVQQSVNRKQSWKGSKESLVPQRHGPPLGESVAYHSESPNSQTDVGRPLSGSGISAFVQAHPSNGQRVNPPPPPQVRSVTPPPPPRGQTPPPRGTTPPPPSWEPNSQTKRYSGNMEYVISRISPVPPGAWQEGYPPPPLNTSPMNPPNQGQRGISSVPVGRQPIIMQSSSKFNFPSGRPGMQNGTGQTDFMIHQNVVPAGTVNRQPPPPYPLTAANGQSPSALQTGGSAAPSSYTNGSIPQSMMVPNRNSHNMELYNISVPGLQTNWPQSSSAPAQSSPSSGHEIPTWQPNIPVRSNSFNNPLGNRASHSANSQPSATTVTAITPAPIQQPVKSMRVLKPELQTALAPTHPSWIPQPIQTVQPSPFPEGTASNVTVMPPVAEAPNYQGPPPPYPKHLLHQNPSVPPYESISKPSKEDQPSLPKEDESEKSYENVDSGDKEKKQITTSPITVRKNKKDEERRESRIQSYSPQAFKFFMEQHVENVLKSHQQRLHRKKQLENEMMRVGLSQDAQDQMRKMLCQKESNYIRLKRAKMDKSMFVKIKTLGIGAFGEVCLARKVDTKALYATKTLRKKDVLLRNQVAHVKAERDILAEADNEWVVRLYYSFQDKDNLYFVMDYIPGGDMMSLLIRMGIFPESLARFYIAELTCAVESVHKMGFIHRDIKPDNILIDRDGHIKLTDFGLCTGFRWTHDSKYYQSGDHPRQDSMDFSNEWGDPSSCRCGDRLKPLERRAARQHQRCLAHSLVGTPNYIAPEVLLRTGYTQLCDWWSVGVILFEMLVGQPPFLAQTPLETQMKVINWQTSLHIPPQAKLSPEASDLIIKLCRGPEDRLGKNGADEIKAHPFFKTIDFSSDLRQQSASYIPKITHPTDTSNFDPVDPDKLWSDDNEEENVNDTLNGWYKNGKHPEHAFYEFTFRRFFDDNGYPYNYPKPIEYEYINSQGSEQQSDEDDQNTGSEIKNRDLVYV
Put plainly: co-IP; SK-Hep-1 cells with TNFAIP8 overexpression; antibodies on magnetic beads (Bio-Rad SureBeads) incubated with the target protein, eluate analysed by western blot; done in both directions. (Immunoblotting shows a protein as a band on a membrane.)

No constants are given. Whether binding was seen depends on the method and setting. Binding seen in cells or lysates may run through a third protein. Some binding calls cover weakened binding; strength is not graded here.

B1: TNFAIP8 (protein, UniProt O95379 1-198)
chain: MHSEAEESKEVATDVFNSKNLAVQAQKKILGKMVSKSIATTLIDDTSSEVLDELYRVTREYTQNKKEAEKIIKNLIKTVIKLAILYRNNQFNQDELALMEKFKKKVHQLAMTVVSFHQVDYTFDRNVLSRLLNECREMLHQIIQRHLTAKSHGRVNNVFDHFSDCEFLAALYNPFGNFKPHLQKLCDGINKMLDEENI
Consider B1, for which the binding entry is “binds”.

The values are drawn from publication PMC5362516.
